# No constants are given. Whether binding was seen depends on the method and setting. In cells and extracts the contact can be indirect. Some binding calls cover weakened binding; strength is not graded here.
# B1: TANK-binding kinase 1 (TBK1), Q9UHD2 1-729 (protein)
# chain: MQSTSNHLWLLSDILGQGATANVFRGRHKKTGDLFAIKVFNNISFLRPVDVQMREFEVLKKLNHKNIVKLFAIEEETTTRHKVLIMEFCPCGSLYTVLEEPSNAYGLPESEFLIVLRDVVGGMNHLRENGIVHRDIKPGNIMRVIGEDGQSVYKLTDFGAARELEDDEQFVSLYGTEEYLHPDMYERAVLRKDHQKKYGATVDLWSIGVTFYHAATGSLPFRPFEGPRRNKEVMYKIITGKPSGAISGVQKAENGPIDWSGDMPVSCSLSRGLQVLLTPVLANILEADQEKCWGFDQFFAETSDILHRMVIHVFSLQQMTAHKIYIHSYNTATIFHELVYKQTKIISSNQELIYEGRRLVLEPGRLAQHFPKTTEENPIFVVSREPLNTIGLIYEKISLPKVHPRYDLDGDASMAKAITGVVCYACRIASTLLLYQELMRKGIRWLIELIKDDYNETVHKKTEVVITLDFCIRNIEKTVKVYEKLMKINLEAAELGEISDIHTKLLRLSSSQGTIETSLQDIDSRLSPGGSLADAWAHQEGTHPKDRNVEKLQVLLNCMTEIYYQFKKDKAERRLAYNEEQIHKFDKQKLYYHATKAMTHFTDECVKKYEAFLNKSEEWIRKMLHLRKQLLSLTNQCFDIEEEVSKYQEYTNELQETLPQKMFTASSGIKHTMTPIYPSSNTLVEMTLGMKKLKEEMEGVVKELAENNHILERFGSLTMDGGLRNVDCL
# Biological target: Stimulator of interferon genes (STING), Q86WV6
# Assay: co-IP
# Details: remark: other sources report otherwise
binder,measurement,value
B1,binding,binds
